Results reported in the supplement of paper PMC4604168 (melanoma cell lines).
The list shows a part of the results. Single values are uncertain, as repeats are few or missing.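 Imaging used 1,536-well plates; nuclei positive for cleaved PARP by antibody were divided by total DNA-stained nuclei to yield the apoptosis fraction. Doses for screening kept most cells viable, and cell lines differ markedly in resting and induced cleaved-PARP levels.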

tested on: WM451Lu; assay: cleaved PARP positive nuclei fraction relative to DMSO control; melanoma cells; higher = more apoptosis; conditions: library dose: low library concentration; 72 h

SMILES	cleaved PARP positive nuclei fraction [%]
N.N.[Cl][Pt][Cl] [cisplatin] + CO[C@@H]1[C@H](N(C)C(=O)c2ccccc2)C[C@H]2O[C@]1(C)n1c3ccccc3c3c4c(c5c6ccccc6n2c5c31)C(=O)NC4 [Midostaurin] (first compound 1.6 µM, partner dose 0.08 µM)	94.2
CCN(CC)CCNC(=O)c1c(C)[nH]c(/C=C2\C(=O)Nc3ccc(F)cc32)c1C [sunitinib] + O=C(Oc1ccc([N+](=O)[O-])cc1)N1CCC(C(O)(c2ccc3c(c2)OCO3)c2ccc3c(c2)OCO3)CC1 [JZL184] (first compound 0.4 µM, partner dose 1 µM)	44.5
N.N.[Cl][Pt][Cl] [cisplatin] + Oc1cc(-c2nc(-c3ccccc3)[nH]c2-c2ccncc2)ccc1Cl [L779450] (first compound 1.6 µM, partner dose 0.2 µM)	98.5
Clc1ccc(Nc2nnc(Cc3ccncc3)c3ccccc23)cc1 [vatalanib] + O=C(Oc1ccc([N+](=O)[O-])cc1)N1CCC(C(O)(c2ccc3c(c2)OCO3)c2ccc3c(c2)OCO3)CC1 [JZL184] (first compound 2 µM, partner dose 1 µM)	29.7
C[As](C)SC[C@H](NC(=O)CC[C@H](N)C(=O)O)C(=O)NCC(=O)O [Darinaparsin] + OCCn1cc(-c2cnc3nnn(Cc4ccc5ncccc5c4)c3n2)cn1 [PF04217903] (first compound 0.4 µM, partner dose 1 µM)	154
C[C@@H](N)c1ccc(C(=O)Nc2ccnc3[nH]ccc23)cc1 + Cc1cc(SCc2sc(-c3ccc(C(F)(F)F)c(F)c3)nc2C)ccc1OCC(=O)O [GW0742] (first compound 0.4 µM, partner dose 2 µM)	76.1
N.N.[Cl][Pt][Cl] [cisplatin] + Cn1cncc1[C@@](N)(c1ccc(Cl)cc1)c1ccc2c(c1)c(-c1cccc(Cl)c1)cc(=O)n2C [tipifarnib] (first compound 1.6 µM, partner dose 0.01 µM)	29.9
